Data from the supplement of paper PMC12823440, “Inhibitors supercharge kinase turnover through native proteolytic circuits” (Nature, 2025).
The other results are listed elsewhere or left out. The calls rarely recur for the same compound in another form.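 Kinases were expressed as nanoluciferase fusions in K562 cells and luminescence was read every 4 h between 2 and 18 h as percent of control, DMSO set to 100% and a positive control to 0%. A time point counts as decreased when the signal drops significantly (2 sigma). The hit call is the authors' own, does not follow from the count of time points alone, and its rule is not shown.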

Sequences of proteins named here, by UniProt entry; tags and fusion partners are left off. A change or cut given only in a name is not applied to a line headed by its entry.
UniProt Q06187: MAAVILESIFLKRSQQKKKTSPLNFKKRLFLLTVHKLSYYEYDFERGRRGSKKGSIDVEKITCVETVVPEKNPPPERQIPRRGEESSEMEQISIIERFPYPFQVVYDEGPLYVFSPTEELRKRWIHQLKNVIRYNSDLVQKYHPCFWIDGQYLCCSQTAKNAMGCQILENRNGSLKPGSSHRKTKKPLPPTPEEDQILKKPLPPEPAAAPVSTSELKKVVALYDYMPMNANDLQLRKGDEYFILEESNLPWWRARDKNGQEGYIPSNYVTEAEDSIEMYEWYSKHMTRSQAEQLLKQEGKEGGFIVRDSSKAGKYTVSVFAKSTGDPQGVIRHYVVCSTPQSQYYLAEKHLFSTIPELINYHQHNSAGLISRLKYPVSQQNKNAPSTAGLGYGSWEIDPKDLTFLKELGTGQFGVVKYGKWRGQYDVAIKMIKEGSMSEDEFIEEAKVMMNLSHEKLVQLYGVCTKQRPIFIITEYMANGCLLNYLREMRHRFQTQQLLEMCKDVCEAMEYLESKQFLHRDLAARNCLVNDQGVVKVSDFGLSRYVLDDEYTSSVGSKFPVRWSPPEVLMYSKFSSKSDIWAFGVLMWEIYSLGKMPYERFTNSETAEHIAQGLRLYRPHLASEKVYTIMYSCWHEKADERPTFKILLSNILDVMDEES
UniProt Q13555: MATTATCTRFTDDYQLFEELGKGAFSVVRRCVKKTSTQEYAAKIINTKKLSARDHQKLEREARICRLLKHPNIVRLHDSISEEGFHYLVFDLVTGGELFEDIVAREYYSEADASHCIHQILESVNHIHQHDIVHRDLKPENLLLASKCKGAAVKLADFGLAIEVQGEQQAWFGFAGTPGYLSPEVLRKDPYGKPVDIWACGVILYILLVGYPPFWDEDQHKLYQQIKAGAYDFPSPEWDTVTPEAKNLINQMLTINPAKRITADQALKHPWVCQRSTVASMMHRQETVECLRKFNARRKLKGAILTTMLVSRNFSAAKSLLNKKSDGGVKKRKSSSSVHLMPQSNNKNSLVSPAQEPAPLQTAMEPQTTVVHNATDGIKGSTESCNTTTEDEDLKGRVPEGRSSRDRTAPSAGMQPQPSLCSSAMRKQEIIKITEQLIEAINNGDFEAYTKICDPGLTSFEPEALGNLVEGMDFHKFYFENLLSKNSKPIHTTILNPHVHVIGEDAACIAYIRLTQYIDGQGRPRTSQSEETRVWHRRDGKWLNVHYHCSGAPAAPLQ
UniProt Q15131: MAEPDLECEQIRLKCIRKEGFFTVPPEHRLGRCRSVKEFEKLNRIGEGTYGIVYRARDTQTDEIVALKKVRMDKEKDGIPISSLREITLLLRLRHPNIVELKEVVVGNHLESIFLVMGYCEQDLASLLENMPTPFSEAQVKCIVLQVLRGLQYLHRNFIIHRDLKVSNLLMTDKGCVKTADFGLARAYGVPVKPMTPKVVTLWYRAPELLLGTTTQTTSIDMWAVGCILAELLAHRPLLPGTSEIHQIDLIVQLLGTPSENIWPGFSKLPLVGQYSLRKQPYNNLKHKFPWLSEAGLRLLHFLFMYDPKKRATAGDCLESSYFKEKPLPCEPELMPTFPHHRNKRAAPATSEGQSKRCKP
UniProt Q00526: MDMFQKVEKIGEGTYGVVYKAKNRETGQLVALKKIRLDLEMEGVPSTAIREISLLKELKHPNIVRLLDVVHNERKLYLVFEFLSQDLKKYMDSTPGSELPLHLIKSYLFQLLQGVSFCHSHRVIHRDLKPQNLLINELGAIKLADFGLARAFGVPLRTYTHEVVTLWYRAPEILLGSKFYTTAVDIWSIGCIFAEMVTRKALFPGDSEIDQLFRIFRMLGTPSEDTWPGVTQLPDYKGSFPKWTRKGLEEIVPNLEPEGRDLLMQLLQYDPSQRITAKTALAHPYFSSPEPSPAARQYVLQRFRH
UniProt P11802: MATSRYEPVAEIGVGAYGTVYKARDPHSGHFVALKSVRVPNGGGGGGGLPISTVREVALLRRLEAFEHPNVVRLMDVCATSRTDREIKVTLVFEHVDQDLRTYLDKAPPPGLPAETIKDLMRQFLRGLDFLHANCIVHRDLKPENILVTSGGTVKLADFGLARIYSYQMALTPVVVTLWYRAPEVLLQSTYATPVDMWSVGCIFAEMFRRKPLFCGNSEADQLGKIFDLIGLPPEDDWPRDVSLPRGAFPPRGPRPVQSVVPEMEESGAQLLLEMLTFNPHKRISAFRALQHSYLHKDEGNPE
UniProt Q00535, whole entry, looked up: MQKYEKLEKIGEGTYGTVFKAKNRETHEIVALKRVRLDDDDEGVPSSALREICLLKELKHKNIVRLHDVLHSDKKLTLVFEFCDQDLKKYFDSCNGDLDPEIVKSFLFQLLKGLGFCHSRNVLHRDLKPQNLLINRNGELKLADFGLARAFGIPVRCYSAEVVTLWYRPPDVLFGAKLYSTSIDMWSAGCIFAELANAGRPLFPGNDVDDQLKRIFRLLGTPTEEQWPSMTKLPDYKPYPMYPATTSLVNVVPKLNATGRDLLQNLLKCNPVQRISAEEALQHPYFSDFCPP
UniProt Q00534, whole entry: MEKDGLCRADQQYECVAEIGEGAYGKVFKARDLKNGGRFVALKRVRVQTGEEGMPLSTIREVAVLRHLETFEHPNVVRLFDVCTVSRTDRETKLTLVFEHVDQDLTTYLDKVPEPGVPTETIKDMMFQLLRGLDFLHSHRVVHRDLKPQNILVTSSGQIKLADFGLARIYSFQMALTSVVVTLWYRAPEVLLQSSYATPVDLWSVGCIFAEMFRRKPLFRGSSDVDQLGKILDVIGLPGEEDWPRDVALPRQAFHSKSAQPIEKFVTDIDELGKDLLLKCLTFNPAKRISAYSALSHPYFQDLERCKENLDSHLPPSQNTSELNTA
UniProt P50750, whole entry: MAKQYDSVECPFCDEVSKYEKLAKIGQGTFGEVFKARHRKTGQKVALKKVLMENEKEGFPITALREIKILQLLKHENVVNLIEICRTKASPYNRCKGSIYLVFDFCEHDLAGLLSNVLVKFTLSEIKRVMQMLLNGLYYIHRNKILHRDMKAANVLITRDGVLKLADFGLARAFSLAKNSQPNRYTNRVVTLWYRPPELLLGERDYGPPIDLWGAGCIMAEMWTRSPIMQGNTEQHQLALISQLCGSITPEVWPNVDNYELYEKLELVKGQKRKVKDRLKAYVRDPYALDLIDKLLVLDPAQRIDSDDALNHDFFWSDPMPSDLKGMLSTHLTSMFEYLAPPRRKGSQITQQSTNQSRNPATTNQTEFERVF
UniProt O96017, whole entry: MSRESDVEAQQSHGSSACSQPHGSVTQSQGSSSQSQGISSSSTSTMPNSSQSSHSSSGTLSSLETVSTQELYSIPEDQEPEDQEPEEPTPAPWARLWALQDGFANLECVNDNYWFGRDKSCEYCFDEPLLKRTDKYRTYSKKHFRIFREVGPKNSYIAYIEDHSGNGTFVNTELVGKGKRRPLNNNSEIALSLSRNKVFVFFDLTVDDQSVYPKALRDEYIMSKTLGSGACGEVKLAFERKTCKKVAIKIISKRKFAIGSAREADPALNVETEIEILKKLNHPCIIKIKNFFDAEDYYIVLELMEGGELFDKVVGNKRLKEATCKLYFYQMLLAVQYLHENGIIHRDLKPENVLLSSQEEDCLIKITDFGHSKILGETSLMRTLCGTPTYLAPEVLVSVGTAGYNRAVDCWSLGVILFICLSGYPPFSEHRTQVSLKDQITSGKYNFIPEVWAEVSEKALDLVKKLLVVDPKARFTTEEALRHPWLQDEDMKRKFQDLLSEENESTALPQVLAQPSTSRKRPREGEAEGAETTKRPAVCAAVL
UniProt P07333, whole entry: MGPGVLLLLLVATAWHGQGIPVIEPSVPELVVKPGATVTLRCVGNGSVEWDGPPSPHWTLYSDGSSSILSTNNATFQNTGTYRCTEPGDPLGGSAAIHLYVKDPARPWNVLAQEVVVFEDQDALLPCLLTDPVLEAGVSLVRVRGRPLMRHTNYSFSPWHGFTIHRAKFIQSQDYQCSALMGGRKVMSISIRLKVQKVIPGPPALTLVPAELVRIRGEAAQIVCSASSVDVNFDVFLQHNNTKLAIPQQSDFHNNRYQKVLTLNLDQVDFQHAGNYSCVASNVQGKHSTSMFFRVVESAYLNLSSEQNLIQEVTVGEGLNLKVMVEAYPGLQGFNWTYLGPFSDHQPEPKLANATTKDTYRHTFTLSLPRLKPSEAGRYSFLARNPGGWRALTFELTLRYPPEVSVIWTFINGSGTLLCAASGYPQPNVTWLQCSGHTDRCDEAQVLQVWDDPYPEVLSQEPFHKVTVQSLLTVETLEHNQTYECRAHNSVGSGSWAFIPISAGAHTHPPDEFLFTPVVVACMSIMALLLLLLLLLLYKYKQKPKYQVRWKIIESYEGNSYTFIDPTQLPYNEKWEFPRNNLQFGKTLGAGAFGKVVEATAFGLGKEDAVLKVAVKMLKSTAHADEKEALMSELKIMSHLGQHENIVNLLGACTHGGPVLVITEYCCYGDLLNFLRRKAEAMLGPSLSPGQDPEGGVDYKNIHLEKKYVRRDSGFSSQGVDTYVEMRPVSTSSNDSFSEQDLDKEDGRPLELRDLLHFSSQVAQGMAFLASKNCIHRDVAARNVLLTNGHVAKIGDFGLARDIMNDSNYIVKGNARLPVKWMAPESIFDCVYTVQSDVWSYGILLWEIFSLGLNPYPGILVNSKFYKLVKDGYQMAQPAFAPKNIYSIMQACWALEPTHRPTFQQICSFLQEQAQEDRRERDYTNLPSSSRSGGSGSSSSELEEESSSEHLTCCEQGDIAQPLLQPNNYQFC
UniProt P41240: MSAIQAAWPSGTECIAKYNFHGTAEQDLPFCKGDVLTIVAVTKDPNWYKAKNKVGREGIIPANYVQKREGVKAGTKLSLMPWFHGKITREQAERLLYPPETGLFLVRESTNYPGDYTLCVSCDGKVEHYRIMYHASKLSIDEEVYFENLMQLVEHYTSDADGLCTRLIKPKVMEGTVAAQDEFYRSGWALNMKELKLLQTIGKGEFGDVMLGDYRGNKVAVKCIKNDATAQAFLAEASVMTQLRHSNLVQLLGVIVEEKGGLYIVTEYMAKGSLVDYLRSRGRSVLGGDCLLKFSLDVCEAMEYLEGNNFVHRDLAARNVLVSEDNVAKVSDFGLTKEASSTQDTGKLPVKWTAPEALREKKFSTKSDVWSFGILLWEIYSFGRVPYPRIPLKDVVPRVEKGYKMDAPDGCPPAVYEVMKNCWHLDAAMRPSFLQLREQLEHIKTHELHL
UniProt P48729: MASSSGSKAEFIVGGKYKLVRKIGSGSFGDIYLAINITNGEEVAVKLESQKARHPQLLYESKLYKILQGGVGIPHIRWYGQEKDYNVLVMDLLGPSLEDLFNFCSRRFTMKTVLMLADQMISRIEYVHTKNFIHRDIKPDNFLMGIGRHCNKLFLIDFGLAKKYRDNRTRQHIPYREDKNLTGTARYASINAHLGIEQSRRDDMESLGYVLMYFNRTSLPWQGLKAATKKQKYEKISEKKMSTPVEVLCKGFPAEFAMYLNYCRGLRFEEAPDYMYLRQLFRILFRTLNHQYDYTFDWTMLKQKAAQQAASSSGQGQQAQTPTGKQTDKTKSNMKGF
UniProt P48730: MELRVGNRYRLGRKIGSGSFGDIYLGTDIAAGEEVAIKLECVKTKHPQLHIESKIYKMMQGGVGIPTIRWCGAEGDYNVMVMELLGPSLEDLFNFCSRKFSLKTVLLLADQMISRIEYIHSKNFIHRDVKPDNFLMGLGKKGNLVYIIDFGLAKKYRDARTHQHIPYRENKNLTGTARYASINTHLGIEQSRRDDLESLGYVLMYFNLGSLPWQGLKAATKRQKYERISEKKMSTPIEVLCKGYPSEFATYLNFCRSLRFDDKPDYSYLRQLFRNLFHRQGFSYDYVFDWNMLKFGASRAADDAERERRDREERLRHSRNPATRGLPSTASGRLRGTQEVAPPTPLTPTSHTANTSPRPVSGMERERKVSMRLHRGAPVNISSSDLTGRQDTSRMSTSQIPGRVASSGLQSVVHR
UniProt Q92630: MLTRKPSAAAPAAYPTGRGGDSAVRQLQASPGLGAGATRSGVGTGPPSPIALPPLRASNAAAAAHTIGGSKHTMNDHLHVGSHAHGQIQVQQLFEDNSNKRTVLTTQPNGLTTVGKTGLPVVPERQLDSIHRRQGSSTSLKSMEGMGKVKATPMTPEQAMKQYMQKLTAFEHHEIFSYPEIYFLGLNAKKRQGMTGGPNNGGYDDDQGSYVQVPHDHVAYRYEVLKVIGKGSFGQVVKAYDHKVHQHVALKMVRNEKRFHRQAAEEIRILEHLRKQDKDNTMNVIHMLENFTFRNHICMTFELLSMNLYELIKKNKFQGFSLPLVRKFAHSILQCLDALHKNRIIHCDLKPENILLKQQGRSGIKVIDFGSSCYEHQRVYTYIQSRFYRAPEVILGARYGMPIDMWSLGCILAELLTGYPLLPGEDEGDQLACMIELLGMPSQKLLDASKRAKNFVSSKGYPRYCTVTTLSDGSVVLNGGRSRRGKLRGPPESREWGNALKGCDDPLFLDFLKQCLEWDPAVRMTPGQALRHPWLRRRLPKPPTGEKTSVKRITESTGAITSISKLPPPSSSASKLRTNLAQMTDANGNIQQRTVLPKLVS

What was measured:
Test in all cases: kinase-Nluc reporter destabilization hit call (1 = scored as downregulated) (binary); higher = compound decreases kinase abundance
Settings in all cases: K562; 2-18 h
BRAF_V600E = tested on: BRAF_V600E
BTK = BTK (UniProt Q06187)
CAMK2A = CAMK2A (UniProt Q9UQM7)
CAMK2G = CAMK2G (UniProt Q13555)
CDK10 = CDK10 (UniProt Q15131)
CDK2 = CDK2 (UniProt P24941)
CDK3 = CDK3 (UniProt Q00526)
CDK4 = CDK4 (UniProt P11802)
CDK5 = CDK5 (UniProt Q00535)
CDK6 = CDK6 (UniProt Q00534)
CDK7 = CDK7 (UniProt P50613)
CDK9 = CDK9 (UniProt P50750)
CHEK2 = CHEK2 (UniProt O96017)
CSF1R = CSF1R (UniProt P07333)
CSK = CSK (UniProt P41240)
CSNK1A1 = CSNK1A1 (UniProt P48729)
CSNK1D = CSNK1D (UniProt P48730)
DDR1 = DDR1 (UniProt Q08345)
DYRK1B = DYRK1B (UniProt Q9Y463)
DYRK2 = DYRK2 (UniProt Q92630)

Measured: kinase-Nluc reporter destabilization hit call

CCN1/C(=C/C(C)=O)Sc2ccc(OC)cc21 (10 µM)
active: BRAF_V600E 1
inactive: BTK 0 | CAMK2A 0 | CAMK2G 0 | CDK10 = 0 | CDK2 = 0 | CDK3 = 0 | CDK4 = 0 | CDK5 = 0 | CDK6 = 0 | CDK7 = 0 | CDK9 = 0 | CHEK2 = 0 | CSF1R 0 | CSK 0 | CSNK1A1 = 0 | CSNK1D 0 | DDR1 = 0 | DYRK1B 0 | DYRK2 = 0

CC(C)c1cc(/C=C(\C#N)C(N)=O)cc(C(C)C)c1O (10 µM)
inactive: BRAF_V600E 0 | BTK 0 | CAMK2A 0 | CAMK2G 0 | CDK10 = 0 | CDK2 = 0 | CDK3 = 0 | CDK4 = 0 | CDK5 = 0 | CDK6 = 0 | CDK7 = 0 | CDK9 = 0 | CHEK2 = 0 | CSF1R 0 | CSK 0 | CSNK1A1 = 0 | CSNK1D 0 | DDR1 = 0 | DYRK1B 0 | DYRK2 = 0

O=C(CO)N1CCC(c2n[nH]c(-c3ccc(Cl)cc3)c2-c2ccncn2)CC1 (10 µM)
inactive: BRAF_V600E 0 | BTK 0 | CAMK2A 0 | CAMK2G 0 | CDK10 = 0 | CDK2 = 0 | CDK3 = 0 | CDK4 = 0 | CDK5 = 0 | CDK6 = 0 | CDK7 = 0 | CDK9 = 0 | CHEK2 = 0 | CSF1R 0 | CSK 0 | CSNK1A1 = 0 | CSNK1D 0 | DDR1 = 0 | DYRK1B 0 | DYRK2 = 0

CC(=O)Nc1nc2ccc(-c3cnc(C)c(NC(=O)OC4CCCCC4)c3)cc2s1 (10 µM)
inactive: BRAF_V600E 0 | BTK 0 | CAMK2A 0 | CAMK2G 0 | CDK10 = 0 | CDK2 = 0 | CDK3 = 0 | CDK4 = 0 | CDK5 = 0 | CDK6 = 0 | CDK7 = 0 | CDK9 = 0 | CHEK2 = 0 | CSF1R 0 | CSK 0 | CSNK1A1 = 0 | CSNK1D 0 | DDR1 = 0 | DYRK1B 0 | DYRK2 = 0

CC(C)n1cnc2c(Nc3cccc(Cl)c3)nc(NCCO)nc21 (10 µM)
inactive: BRAF_V600E 0 | BTK 0 | CAMK2A 0 | CAMK2G 0 | CDK10 = 0 | CDK2 = 0 | CDK3 = 0 | CDK4 = 0 | CDK5 = 0 | CDK6 = 0 | CDK7 = 0 | CDK9 = 0 | CHEK2 = 0 | CSF1R 0 | CSK 0 | CSNK1A1 = 0 | CSNK1D 0 | DDR1 = 0 | DYRK1B 0 | DYRK2 = 0

C[C@@H]1COCCN1c1cc(C2([S@](C)(=N)=O)CC2)nc(-c2cc[nH]c3nccc2-3)n1 [Ceralasertib] (2.5 µM)
inactive: BRAF_V600E 0 | BTK 0 | CAMK2A 0 | CAMK2G 0 | CDK10 = 0 | CDK2 = 0 | CDK3 = 0 | CDK4 = 0 | CDK5 = 0 | CDK6 = 0 | CDK7 = 0 | CDK9 = 0 | CHEK2 = 0 | CSF1R 0 | CSK 0 | CSNK1A1 = 0 | CSNK1D 0 | DDR1 = 0 | DYRK1B 0 | DYRK2 = 0

CCOC(=O)c1c2c3c(cccc3[nH]c1=O)C(=O)c1ccccc1-2 (10 µM)
inactive: BRAF_V600E 0 | BTK 0 | CAMK2A 0 | CAMK2G 0 | CDK10 = 0 | CDK2 = 0 | CDK3 = 0 | CDK4 = 0 | CDK5 = 0 | CDK6 = 0 | CDK7 = 0 | CDK9 = 0 | CHEK2 = 0 | CSF1R 0 | CSK 0 | CSNK1A1 = 0 | CSNK1D 0 | DDR1 = 0 | DYRK1B 0 | DYRK2 = 0

COc1cc(N2CCC(O)CC2)ccc1Nc1cc(Nc2ccccc2S(=O)(=O)C(C)C)c2cc[nH]c2n1 (10 µM)
inactive: BRAF_V600E 0 | BTK 0 | CAMK2A 0 | CAMK2G 0 | CDK10 = 0 | CDK2 = 0 | CDK3 = 0 | CDK4 = 0 | CDK5 = 0 | CDK6 = 0 | CDK7 = 0 | CDK9 = 0 | CHEK2 = 0 | CSF1R 0 | CSK 0 | CSNK1A1 = 0 | CSNK1D 0 | DDR1 = 0 | DYRK1B 0 | DYRK2 = 0

O=C1NC(=O)/C(=C/c2ccc(-c3ccc(F)cc3O)o2)S1 (10 µM)
inactive: BRAF_V600E 0 | BTK 0 | CAMK2A 0 | CAMK2G 0 | CDK10 = 0 | CDK2 = 0 | CDK3 = 0 | CDK4 = 0 | CDK5 = 0 | CDK6 = 0 | CDK7 = 0 | CDK9 = 0 | CHEK2 = 0 | CSF1R 0 | CSK 0 | CSNK1A1 = 0 | CSNK1D 0 | DDR1 = 0 | DYRK1B 0 | DYRK2 = 0
